From publication PMC7594058
These are yes or no findings as the source states them, for the method shown. Binding seen in cells or lysates may run through a third protein. Here binding means that the protein was enriched with, or labelled near, the bait; the list need not be complete.

By UniProt entry, the sequences of proteins in these tests, tags left out. Where a name states a change or a piece, a line headed by the entry shows the natural chain unless it says otherwise.
UniProt P03072: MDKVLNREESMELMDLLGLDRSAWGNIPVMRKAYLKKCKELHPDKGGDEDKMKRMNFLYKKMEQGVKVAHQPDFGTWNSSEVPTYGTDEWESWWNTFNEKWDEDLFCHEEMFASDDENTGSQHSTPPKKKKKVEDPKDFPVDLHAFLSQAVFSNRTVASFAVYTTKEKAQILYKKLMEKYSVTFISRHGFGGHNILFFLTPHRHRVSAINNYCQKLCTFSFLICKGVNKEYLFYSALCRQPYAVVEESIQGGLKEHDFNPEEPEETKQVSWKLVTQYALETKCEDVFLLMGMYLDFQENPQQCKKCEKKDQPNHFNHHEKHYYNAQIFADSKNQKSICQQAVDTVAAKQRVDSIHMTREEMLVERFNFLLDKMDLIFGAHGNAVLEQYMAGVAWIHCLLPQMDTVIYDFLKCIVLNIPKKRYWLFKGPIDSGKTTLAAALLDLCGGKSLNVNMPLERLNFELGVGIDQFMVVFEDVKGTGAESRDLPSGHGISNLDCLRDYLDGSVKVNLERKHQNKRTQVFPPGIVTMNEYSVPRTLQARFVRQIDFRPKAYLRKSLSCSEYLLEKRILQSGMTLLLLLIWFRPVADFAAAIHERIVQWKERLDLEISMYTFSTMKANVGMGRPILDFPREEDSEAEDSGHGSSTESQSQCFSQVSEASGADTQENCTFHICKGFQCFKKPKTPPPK
UniProt Q9UI12: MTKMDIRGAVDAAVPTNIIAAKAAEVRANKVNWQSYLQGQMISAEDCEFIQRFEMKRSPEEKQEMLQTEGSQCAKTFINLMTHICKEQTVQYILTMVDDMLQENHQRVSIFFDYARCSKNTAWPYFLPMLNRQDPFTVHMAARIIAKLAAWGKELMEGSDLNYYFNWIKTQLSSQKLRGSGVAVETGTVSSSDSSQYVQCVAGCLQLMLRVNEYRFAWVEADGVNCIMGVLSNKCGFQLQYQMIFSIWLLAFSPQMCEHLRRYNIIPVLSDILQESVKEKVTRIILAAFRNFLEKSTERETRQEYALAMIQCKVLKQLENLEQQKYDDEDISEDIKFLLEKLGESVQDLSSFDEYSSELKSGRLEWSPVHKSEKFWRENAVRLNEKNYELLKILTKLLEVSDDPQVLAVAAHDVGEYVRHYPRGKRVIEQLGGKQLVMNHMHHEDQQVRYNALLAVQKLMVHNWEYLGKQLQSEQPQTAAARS
UniProt Q92747: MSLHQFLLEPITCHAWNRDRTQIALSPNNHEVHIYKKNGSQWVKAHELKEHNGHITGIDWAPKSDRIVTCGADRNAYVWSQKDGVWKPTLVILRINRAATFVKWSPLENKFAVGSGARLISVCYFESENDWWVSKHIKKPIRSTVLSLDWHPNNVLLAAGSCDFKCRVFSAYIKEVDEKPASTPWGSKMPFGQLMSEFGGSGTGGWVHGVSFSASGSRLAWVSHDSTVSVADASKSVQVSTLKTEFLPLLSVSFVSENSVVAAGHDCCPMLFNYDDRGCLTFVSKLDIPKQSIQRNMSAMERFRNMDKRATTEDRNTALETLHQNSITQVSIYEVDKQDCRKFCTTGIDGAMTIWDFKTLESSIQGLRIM
UniProt Q12965: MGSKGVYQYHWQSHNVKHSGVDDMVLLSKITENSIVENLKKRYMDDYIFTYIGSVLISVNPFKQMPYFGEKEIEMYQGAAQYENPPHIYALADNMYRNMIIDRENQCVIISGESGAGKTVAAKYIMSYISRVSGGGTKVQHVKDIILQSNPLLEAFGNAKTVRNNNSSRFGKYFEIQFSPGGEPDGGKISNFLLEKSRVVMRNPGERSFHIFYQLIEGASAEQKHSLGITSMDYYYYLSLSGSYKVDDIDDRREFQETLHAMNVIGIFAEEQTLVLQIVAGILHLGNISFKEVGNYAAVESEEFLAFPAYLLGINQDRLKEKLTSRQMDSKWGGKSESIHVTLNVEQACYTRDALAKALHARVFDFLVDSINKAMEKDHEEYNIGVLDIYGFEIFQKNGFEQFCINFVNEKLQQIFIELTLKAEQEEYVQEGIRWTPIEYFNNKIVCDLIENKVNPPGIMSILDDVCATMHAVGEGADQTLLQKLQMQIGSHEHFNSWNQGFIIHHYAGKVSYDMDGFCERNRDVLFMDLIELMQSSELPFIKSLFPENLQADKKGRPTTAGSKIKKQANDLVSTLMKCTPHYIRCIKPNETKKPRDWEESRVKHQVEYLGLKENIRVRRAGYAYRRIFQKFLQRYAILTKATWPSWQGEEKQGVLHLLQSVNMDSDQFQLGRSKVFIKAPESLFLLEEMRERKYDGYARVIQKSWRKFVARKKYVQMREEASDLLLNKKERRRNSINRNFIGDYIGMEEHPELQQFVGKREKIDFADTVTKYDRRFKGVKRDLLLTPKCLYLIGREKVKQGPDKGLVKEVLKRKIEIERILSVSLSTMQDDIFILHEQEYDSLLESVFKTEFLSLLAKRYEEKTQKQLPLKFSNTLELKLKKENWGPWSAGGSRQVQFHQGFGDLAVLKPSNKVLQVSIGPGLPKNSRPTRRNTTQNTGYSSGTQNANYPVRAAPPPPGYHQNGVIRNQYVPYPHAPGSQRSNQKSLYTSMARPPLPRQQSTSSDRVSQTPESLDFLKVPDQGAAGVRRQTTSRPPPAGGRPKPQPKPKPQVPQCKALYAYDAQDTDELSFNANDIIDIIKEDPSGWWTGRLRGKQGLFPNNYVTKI
UniProt P43358: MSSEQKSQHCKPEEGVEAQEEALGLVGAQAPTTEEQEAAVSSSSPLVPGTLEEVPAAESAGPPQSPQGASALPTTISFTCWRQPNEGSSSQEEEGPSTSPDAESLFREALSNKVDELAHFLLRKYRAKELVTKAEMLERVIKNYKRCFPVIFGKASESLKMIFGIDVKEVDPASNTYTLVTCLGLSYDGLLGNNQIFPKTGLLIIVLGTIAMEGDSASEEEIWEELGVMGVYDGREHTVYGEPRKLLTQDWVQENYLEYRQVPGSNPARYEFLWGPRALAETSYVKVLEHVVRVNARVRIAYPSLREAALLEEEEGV
UniProt P43355: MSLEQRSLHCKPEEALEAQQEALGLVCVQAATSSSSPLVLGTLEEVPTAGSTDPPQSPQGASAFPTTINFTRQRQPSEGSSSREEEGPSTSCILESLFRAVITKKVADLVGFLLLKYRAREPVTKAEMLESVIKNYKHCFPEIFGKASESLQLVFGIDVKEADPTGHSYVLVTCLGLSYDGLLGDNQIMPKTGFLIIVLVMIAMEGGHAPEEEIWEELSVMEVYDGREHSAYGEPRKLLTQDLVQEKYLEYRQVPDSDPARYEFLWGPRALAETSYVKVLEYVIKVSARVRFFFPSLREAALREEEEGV
UniProt Q8IWJ2: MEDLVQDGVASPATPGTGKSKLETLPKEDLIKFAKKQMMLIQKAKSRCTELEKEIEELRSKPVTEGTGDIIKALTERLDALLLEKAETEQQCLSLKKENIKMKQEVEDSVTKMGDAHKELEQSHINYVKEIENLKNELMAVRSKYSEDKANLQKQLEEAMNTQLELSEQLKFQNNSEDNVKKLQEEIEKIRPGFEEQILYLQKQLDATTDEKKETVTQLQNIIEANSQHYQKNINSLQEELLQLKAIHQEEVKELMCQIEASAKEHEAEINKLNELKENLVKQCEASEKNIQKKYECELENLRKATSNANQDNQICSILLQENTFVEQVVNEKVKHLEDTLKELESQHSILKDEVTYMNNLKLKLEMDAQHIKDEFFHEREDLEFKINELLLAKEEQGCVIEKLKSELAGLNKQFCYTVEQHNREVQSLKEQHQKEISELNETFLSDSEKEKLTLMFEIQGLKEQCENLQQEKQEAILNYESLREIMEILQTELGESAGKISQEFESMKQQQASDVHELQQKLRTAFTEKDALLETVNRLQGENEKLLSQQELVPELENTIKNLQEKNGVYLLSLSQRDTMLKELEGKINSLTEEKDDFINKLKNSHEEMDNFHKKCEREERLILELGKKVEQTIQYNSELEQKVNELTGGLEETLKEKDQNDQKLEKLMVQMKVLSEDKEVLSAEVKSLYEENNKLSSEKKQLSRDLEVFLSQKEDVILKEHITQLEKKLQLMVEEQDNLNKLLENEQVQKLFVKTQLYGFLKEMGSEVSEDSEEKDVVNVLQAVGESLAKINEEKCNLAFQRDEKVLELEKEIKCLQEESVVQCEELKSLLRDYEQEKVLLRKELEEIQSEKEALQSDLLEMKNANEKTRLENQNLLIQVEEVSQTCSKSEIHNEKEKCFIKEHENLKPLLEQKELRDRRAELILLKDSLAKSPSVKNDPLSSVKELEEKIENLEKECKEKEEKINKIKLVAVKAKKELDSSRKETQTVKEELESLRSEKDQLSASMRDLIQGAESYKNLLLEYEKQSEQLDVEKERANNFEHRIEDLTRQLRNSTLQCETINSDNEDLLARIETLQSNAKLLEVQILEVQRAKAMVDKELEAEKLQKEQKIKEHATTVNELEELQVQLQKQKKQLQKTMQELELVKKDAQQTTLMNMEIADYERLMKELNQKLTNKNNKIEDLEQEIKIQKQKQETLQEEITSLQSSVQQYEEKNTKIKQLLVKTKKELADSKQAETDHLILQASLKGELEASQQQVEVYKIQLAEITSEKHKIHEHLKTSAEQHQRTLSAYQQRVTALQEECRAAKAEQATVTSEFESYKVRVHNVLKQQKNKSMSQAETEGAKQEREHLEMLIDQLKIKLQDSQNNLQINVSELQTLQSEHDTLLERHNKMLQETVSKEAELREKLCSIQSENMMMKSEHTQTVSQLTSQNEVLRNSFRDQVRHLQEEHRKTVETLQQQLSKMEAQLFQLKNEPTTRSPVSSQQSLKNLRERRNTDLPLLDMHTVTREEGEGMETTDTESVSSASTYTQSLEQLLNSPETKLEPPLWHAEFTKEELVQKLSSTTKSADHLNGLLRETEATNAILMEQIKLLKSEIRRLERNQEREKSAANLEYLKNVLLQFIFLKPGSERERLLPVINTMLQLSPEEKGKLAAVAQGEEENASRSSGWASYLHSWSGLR
UniProt Q8IY18: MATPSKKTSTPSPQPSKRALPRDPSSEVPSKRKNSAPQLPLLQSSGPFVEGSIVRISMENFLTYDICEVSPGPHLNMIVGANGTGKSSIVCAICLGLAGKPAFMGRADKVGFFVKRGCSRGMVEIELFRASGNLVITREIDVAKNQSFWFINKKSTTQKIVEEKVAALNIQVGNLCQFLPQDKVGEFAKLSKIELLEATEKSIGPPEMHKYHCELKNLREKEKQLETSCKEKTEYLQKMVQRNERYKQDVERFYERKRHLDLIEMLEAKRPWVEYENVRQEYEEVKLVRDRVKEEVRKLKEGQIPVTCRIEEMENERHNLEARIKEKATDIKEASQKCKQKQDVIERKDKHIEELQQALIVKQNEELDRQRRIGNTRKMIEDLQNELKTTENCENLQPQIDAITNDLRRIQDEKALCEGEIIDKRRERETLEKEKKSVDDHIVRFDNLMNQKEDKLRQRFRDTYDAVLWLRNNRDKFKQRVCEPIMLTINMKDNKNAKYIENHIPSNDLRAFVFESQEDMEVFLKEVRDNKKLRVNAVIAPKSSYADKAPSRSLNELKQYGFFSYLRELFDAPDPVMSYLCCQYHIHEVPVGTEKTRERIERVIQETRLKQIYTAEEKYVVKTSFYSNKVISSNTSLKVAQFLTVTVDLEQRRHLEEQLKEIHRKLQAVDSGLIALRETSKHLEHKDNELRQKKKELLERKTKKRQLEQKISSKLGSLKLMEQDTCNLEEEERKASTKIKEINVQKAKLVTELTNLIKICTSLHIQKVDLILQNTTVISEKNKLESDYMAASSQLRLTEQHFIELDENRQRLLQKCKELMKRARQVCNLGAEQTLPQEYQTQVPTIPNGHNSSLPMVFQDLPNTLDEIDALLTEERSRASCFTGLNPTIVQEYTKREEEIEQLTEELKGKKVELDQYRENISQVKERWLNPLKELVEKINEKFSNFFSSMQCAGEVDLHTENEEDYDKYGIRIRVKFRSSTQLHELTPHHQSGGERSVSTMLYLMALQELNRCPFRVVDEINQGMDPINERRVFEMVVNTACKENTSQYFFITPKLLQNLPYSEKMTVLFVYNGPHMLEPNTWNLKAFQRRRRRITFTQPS
UniProt P21281: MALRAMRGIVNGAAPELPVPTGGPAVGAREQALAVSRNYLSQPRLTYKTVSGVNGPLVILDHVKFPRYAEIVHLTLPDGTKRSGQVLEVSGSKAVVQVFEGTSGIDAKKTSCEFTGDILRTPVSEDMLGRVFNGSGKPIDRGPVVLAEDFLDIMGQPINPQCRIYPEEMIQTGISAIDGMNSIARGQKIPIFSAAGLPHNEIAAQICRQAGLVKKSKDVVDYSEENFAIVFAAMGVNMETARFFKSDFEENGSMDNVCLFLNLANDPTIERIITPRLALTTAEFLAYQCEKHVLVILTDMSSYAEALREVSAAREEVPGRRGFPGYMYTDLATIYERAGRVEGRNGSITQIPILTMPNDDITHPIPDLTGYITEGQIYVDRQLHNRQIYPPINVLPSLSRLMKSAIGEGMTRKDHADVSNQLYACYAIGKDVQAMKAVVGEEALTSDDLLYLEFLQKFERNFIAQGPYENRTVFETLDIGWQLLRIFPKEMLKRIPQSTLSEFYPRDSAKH

B1: Serine/threonine-protein phosphatase 4 regulatory subunit 2 (protein, UniProt Q9NY27 1-417)
chain: MDVERLQEALKDFEKRGKKEVCPVLDQFLCHVAKTGETMIQWSQFKGYFIFKLEKVMDDFRTSAPEPRGPPNPNVEYIPFDEMKERILKIVTGFNGIPFTIQRLCELLTDPRRNYTGTDKFLRGVEKNVMVVSCVYPSSEKNNSNSLNRMNGVMFPGNSPSYTERSNINGPGTPRPLNRPKVSLSAPMTTNGLPESTDSKEANLQQNEEKNHSDSSTSESEVSSVSPLKNKHPDEDAVEAEGHEVKRLRFDKEGEVRETASQTTSSEISSVMVGETEASSSSQDKDKDSRCTRQHCTEEDEEEDEEEEEESFMTSREMIPERKNQEKESDDALTVNEETSEENNQMEESDVSQAEKDLLHSEGSENEGPVSSSSSDCRETEELVGSNSSKTGEILSESSMENDDEATEVTDEPMEQD
B2: Non-structural maintenance of chromosomes element 3 homolog (protein, UniProt Q96MG7 1-304)
chain: MLQKPRNRGRSGGQAERDRDWSHSGNPGASRAGEDARVLRDGFAEEAPSTSRGPGGSQGSQGPSPQGARRAQAAPAVGPRSQKQLELKVSELVQFLLIKDQKKIPIKRADILKHVIGDYKDIFPDLFKRAAERLQYVFGYKLVELEPKSNTYILINTLEPVEEDAEMRGDQGTPTTGLLMIVLGLIFMKGNTIKETEAWDFLRRLGVYPTKKHLIFGDPKKLITEDFVRQRYLEYRRIPHTDPVDYEFQWGPRTNLETSKMKVLKFVAKVHNQDPKDWPAQYCEALADEENRARPQPSGPAPSS
B3: Melanoma-associated antigen MAGEC3 (protein, UniProt Q8TD91 1-643)
chain: MLLPCHWVLDATFSDGSLGQWVKNTCATYALSPVVLPPQPQPRKKATDKDYSAFHLGHLREVRLFLRGGTSDQRMDSLVLCPTYFKLWRTLSGSPGLQLSDLHFGSQPEGKFSLRRAVSVKQREEPQDWPLNEKRTLWKDSDLPTWRRGTGYTLSLPAVSPGKRLWGEKAGSLPESEPLFTYTLDEKVDKLVQFLLLKYQAKEPLTRAEMQMNVINTYTGYFPMIFRKAREFIEILFGISLTEVDPDHFYVFVNTLDLTCEGSLSDEQGMPQNRLLILILSVIFIKGNCASEEVIWEVLNAIGPWSALAGFADVLSRLALWESEGPEAFCEESGLRSAEGSVLDLANPQGLAGHRQEDGRRGLTEASPQQKKGGEDEDMPAAGMPPLPQSPPEIPPQGPPKISPQGPPQSPPQSPLDSCSSPLLWTRLDEESSSEEEDTATWHALPESESLPRYALDEKVAELVQFLLLKYQTKEPVTKAEMLTTVIKKYKDYFPMIFGKAHEFIELIFGIALTDMDPDNHSYFFEDTLDLTYEGSLIDDQGMPKNCLLILILSMIFIKGSCVPEEVIWEVLSAIGPIQRPAREVLEFLSKLSSIIPSAFPSWYMDALKDMEDRAQAIIDTTDDATAMASASPSVMSTNFCPE
B4: Serine/threonine-protein phosphatase 4 catalytic subunit (protein, UniProt P60510 1-307)
chain: MAEISDLDRQIEQLRRCELIKESEVKALCAKAREILVEESNVQRVDSPVTVCGDIHGQFYDLKELFRVGGDVPETNYLFMGDFVDRGFYSVETFLLLLALKVRYPDRITLIRGNHESRQITQVYGFYDECLRKYGSVTVWRYCTEIFDYLSLSAIIDGKIFCVHGGLSPSIQTLDQIRTIDRKQEVPHDGPMCDLLWSDPEDTTGWGVSPRGAGYLFGSDVVAQFNAANDIDMICRAHQLVMEGYKWHFNETVLTVWSAPNYCYRCGNVAAILELDEHLQKDFIIFEAAPQETRGIPSKKPVADYFL
B5: Serine/threonine-protein phosphatase 4 regulatory subunit 3A (protein, UniProt Q6IN85 1-833)
chain: MTDTRRRVKVYTLNEDRQWDDRGTGHVSSGYVERLKGMSLLVRAESDGSLLLESKINPNTAYQKQQDTLIVWSEAENYDLALSFQEKAGCDEIWEKICQVQGKDPSVDITQDLVDESEEERFDDMSSPGLELPSCELSRLEEIAELVASSLPSPLRREKLALALENEGYIKKLLELFHVCEDLENIEGLHHLYEIIKGIFLLNRTALFEVMFSEECIMDVIGCLEYDPALSQPRKHREFLTKTAKFKEVIPISDPELKQKIHQTYRVQYIQDMVLPTPSVFEENMLSTLHSFIFFNKVEIVGMLQEDEKFLTDLFAQLTDEATDEEKRQELVNFLKEFCAFSQTLQPQNRDAFFKTLSNMGILPALEVILGMDDTQVRSAATDIFSYLVEYNPSMVREFVMQEAQQNDDVSKKLTEQKITSKDILLINLIIEHMICDTDPELGGAVQLMGLLRTLVDPENMLATANKTEKTEFLGFFYKHCMHVLTAPLLANTTEDKPSKDDFQTAQLLALVLELLTFCVEHHTYHIKNYIINKDILRRVLVLMASKHAFLALCALRFKRKIIGLKDEFYNRYIMKSFLFEPVVKAFLNNGSRYNLMNSAIIEMFEFIRVEDIKSLTAHVIENYWKALEDVDYVQTFKGLKLRFEQQRERQDNPKLDSMRSILRNHRYRRDARTLEDEEEMWFNTDEDDMEDGEAVVSPSDKTKNDDDIMDPISKFMERKKLKESEEKEVLLKTNLSGRQSPSFKLSLSSGTKTNLTSQSSTTNLPGSPGSPGSPGSPGSPGSVPKNTSQTAAITTKGGLVGLVDYPDDDEDDDEDEDKEDTLPLSKKAKFDS
B6: Non-structural maintenance of chromosomes element 4 homolog A (protein, UniProt Q9NXX6 1-385)
chain: MSGDSSGRGPEGRGRGRDPHRDRTRSRSRSRSPLSPRSRRGSARERREAPERPSLEDTEPSDSGDEMMDPASLEAEADQGLCRQIRHQYRALINSVQQNREDILNAGDKLTEVLEEANTLFNEVSRAREAVLDAHFLVLASDLGKEKAKQLRSDLSSFDMLRYVETLLTHMGVNPLEAEELIRDEDSPDFEFIVYDSWKITGRTAENTFNKTHTFHFLLGSIYGECPVPKPRVDRPRKVPVIQEERAMPAQLRRMEESHQEATEKEVERILGLLQTYFREDPDTPMSFFDFVVDPHSFPRTVENIFHVSFIIRDGFARIRLDQDRLPVIEPVSINEENEGFEHNTQVRNQGIIALSYRDWEEIVKTFEISEPVITPSQRQQKPSA
B7: Melanoma-associated antigen MAGEC1 (protein, UniProt O60732 1-1142)
chain: MGDKDMPTAGMPSLLQSSSESPQSCPEGEDSQSPLQIPQSSPESDDTLYPLQSPQSRSEGEDSSDPLQRPPEGKDSQSPLQIPQSSPEGDDTQSPLQNSQSSPEGKDSLSPLEISQSPPEGEDVQSPLQNPASSFFSSALLSIFQSSPESTQSPFEGFPQSVLQIPVSAASSSTLVSIFQSSPESTQSPFEGFPQSPLQIPVSRSFSSTLLSIFQSSPERTQSTFEGFAQSPLQIPVSPSSSSTLLSLFQSFSERTQSTFEGFAQSSLQIPVSPSFSSTLVSLFQSSPERTQSTFEGFPQSPLQIPVSSSSSSTLLSLFQSSPERTHSTFEGFPQSLLQIPMTSSFSSTLLSIFQSSPESAQSTFEGFPQSPLQIPGSPSFSSTLLSLFQSSPERTHSTFEGFPQSPLQIPMTSSFSSTLLSILQSSPESAQSAFEGFPQSPLQIPVSSSFSYTLLSLFQSSPERTHSTFEGFPQSPLQIPVSSSSSSSTLLSLFQSSPECTQSTFEGFPQSPLQIPQSPPEGENTHSPLQIVPSLPEWEDSLSPHYFPQSPPQGEDSLSPHYFPQSPPQGEDSLSPHYFPQSPQGEDSLSPHYFPQSPPQGEDSMSPLYFPQSPLQGEEFQSSLQSPVSICSSSTPSSLPQSFPESSQSPPEGPVQSPLHSPQSPPEGMHSQSPLQSPESAPEGEDSLSPLQIPQSPLEGEDSLSSLHFPQSPPEWEDSLSPLHFPQFPPQGEDFQSSLQSPVSICSSSTSLSLPQSFPESPQSPPEGPAQSPLQRPVSSFFSYTLASLLQSSHESPQSPPEGPAQSPLQSPVSSFPSSTSSSLSQSSPVSSFPSSTSSSLSKSSPESPLQSPVISFSSSTSLSPFSEESSSPVDEYTSSSDTLLESDSLTDSESLIESEPLFTYTLDEKVDELARFLLLKYQVKQPITKAEMLTNVISRYTGYFPVIFRKAREFIEILFGISLREVDPDDSYVFVNTLDLTSEGCLSDEQGMSQNRLLILILSIIFIKGTYASEEVIWDVLSGIGVRAGREHFAFGEPRELLTKVWVQEHYLEYREVPNSSPPRYEFLWGPRAHSEVIKRKVVEFLAMLKNTVPITFPSSYKDALKDVEERAQAIIDTTDDSTATESASSSVMSPSFSSE
B8: Melanoma-associated antigen MAGEB18 (protein, UniProt Q96M61 1-343)
chain: MPRGQKSKLRAREKRHQARCENQDLGATQATVAEGESPSPAYLLFGDRPQNLPAAETPSIPEALQGAPSTTNAIAPVSCSSNEGASSQDEKSLGSSREAEGWKEDPLNKKVVSLVHFLLQKYETKEPITKGDMIKFVIRKDKCHFNEILKRASEHMELALGVDLKEVDPIRHYYAFFSKLDLTYDETTSDEEKIPKTGLLMIALGVIFLNGNRAPEEAVWEIMNMMGVYADRKHFLYGDPRKVMTKDLVQLKYLEYQQVPNSDPPRYEFLWGPRAHAETSKMKVLEFVAKIHDTVPSAFPSCYEEALRDEEQRTQARAAARAHTAAMANARSRTTSSSFSHAK

Target: T7-2xStrep-JCV LT-Ag (JC virus (JCV)) (UniProt P03072)
Assay: affinity purification with mass spectrometry

Molecule	binding
ATPase, H+ transporting, lysosomal 31 kDa, V1 subunit E isoform (from UniProt P36543 1-226)	binds
ATPase, H+ transporting, lysosomal 50/57 kDa, V1 subunit H, isoform (from UniProt Q9UI12 1-483)	binds
Actin related protein 2/3 complex subunit 1A variant (from UniProt Q92747 1-370)	binds
MYO1E variant protein, Unconventional myosin-Ie (from UniProt Q12965 1-1108)	binds
Melanoma antigen family A, 4, isoform CRA_a (from UniProt P43358 1-317)	binds
Melanoma-associated antigen MAGEA1 (from UniProt P43355 1-309)	binds
Myosin-14 (from UniProt Q7Z406 1-1995)	binds
Neurabin-2 (from UniProt Q96SB3 1-817)	binds
RIP and coiled-coil domain-containing protein 2 (from UniProt Q8IWJ2 1-1684)	binds
Replication protein A 70 kDa DNA-binding subunit (from UniProt P27694 1-616)	binds
Structural maintenance of chromosomes protein 5 (from UniProt Q8IY18 1-1101)	binds
Tight junction protein ZO-1 (from UniProt Q07157 1-1748)	binds
V-type proton ATPase subunit B, brain isoform (from UniProt P21281 1-511)	binds
V-type proton ATPase subunit a (from UniProt Q93050 1-837)	binds
V-type proton ATPase subunit d 1 (Fragment) (from UniProt P61421 1-351)	binds
Yb-1 (Y-box binding protein) (from UniProt P67809 1-324)	binds
B1	binds
B2	binds
B3	binds
B4	binds
B5	binds
B6	binds
B7	binds
B8	binds
